The other results are listed elsewhere or left out. The list holds hits alone, and they repeat only in part.
Assays:
Assay in all cases: PRISMA enrichment of interactor (LFQ) in peptide spot vs all other peptide spots (log2 fold change); higher = stronger / more specific binding of the interactor to the peptide
AGK, Q53H12 = molecular target: AGK, Q53H12
Description: (§1)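 PRISMA: 15-aa overlapping tiles (offset 8 aa) of 60 microproteins, plus SOS1/GLUT1 control peptides, were spot-synthesized on cellulose membranes in triplicate. Membranes were incubated with benzonase-treated HEK293T lysate, and bound proteins were identified by LC-MS/MS with LFQ. Enrichment is the log2 fold change of each protein in one spot versus all other spots. Only interactors passing the significance cutoff are listed.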

Sequences of proteins named here, by UniProt entry; tags and fusion partners are left off.
CDC27, P30260, UniProt P30260, whole entry: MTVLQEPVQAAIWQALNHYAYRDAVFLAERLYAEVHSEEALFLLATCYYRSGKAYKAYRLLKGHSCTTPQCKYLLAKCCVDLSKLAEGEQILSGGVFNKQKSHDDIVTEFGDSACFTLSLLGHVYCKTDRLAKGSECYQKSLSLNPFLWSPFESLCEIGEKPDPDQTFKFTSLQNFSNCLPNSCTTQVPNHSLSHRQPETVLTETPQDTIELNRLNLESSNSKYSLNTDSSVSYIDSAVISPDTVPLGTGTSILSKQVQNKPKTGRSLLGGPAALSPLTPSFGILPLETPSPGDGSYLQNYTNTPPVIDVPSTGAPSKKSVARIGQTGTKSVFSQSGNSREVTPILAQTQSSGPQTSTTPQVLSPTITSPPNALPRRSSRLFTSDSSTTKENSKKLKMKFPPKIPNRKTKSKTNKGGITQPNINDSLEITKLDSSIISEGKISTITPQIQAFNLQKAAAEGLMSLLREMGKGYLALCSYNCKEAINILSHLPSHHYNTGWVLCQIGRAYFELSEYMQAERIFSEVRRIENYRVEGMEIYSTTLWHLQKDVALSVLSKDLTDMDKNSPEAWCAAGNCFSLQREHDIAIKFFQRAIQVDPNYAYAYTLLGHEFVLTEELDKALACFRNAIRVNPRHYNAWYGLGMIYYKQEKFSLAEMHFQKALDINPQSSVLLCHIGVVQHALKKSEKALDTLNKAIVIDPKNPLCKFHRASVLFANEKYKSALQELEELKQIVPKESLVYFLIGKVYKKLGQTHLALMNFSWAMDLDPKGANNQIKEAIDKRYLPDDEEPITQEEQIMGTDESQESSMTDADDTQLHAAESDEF
LARP4, Q71RC2, UniProt Q71RC2, whole entry: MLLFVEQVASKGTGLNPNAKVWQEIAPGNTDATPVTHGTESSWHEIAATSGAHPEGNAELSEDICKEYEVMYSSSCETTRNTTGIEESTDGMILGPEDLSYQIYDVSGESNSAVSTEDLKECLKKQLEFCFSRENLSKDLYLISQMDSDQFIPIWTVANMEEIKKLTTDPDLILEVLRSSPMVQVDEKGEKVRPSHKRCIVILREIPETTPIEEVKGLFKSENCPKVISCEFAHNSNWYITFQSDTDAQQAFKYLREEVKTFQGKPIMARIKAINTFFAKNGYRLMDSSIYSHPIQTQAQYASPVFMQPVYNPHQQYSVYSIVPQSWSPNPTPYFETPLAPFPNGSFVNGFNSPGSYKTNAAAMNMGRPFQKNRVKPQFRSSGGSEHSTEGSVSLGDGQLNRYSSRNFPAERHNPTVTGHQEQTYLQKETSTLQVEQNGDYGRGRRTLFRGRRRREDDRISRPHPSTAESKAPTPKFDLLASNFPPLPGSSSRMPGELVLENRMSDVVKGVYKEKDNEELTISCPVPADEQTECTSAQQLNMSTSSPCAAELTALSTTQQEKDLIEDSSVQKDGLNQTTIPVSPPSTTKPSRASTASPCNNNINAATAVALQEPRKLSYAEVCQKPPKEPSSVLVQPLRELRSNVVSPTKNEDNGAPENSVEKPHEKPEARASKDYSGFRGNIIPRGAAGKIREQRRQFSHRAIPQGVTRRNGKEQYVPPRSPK
NDUFS7, O75251, UniProt O75251, whole entry: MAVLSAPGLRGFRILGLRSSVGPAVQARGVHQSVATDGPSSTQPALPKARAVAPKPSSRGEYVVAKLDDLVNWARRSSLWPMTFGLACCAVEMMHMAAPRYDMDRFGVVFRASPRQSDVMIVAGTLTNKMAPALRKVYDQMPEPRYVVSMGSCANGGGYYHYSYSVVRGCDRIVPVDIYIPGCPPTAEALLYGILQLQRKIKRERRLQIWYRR
PFN1, P07737, UniProt P07737, whole entry: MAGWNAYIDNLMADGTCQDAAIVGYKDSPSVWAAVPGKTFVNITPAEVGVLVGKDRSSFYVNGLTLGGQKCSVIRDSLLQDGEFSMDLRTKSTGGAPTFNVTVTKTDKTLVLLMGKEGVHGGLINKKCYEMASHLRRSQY
PSMC5, P62195, UniProt P62195, whole entry: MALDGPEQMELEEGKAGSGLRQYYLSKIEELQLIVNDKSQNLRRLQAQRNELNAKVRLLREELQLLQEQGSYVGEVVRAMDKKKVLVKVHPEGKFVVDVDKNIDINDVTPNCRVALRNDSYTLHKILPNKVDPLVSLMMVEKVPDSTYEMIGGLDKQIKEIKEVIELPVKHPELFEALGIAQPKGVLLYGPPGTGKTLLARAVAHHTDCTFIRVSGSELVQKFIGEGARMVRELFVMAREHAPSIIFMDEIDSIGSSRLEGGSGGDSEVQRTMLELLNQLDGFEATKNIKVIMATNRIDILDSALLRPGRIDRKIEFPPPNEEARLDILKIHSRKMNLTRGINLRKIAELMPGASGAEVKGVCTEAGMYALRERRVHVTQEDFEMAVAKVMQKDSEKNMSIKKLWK
SF3B1, O75533, UniProt O75533, whole entry: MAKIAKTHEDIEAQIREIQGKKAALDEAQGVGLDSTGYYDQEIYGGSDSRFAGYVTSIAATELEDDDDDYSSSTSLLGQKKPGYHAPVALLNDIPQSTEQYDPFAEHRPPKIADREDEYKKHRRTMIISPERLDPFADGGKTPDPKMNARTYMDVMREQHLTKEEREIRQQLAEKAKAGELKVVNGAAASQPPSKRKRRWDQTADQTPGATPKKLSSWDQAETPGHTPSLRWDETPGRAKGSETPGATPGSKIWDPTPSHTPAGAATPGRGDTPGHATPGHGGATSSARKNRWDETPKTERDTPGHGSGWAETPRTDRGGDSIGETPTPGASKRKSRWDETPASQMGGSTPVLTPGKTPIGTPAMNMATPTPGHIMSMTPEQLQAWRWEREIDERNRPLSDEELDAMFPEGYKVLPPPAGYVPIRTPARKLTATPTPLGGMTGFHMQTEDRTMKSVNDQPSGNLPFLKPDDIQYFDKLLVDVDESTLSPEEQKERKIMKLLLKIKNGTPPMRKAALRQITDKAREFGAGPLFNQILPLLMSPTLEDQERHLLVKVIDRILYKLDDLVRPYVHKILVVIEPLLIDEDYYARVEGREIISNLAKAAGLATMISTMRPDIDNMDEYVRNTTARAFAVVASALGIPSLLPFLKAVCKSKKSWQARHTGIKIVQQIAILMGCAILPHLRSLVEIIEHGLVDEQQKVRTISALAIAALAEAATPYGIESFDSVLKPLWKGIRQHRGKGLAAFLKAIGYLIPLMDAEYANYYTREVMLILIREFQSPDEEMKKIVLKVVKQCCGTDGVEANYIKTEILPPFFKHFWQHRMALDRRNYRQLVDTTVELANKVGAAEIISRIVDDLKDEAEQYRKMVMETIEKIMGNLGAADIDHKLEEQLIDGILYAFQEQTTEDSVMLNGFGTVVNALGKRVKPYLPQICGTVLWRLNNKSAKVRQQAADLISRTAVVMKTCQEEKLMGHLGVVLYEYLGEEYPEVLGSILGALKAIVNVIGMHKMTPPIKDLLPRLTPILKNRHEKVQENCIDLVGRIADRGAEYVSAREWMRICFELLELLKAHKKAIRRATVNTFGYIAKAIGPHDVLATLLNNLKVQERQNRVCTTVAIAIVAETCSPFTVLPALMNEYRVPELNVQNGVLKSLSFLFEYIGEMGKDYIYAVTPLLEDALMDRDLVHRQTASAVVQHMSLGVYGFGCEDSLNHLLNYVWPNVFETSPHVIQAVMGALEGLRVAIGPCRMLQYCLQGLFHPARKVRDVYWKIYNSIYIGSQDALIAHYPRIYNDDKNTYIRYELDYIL

BZW1, Q7L1Q6 = molecular target: BZW1, Q7L1Q6
Description: as §1

CDC27, P30260 = molecular target: CDC27, P30260
Description: as §1

CERS2, Q96G23 = molecular target: CERS2, Q96G23
Description: as §1

CLNS1A, P54105 = molecular target: CLNS1A, P54105
Description: as §1

CTPS1, P17812 = molecular target: CTPS1, P17812
Description: as §1

DCUN1D5, Q9BTE7 = molecular target: DCUN1D5, Q9BTE7
Description: as §1

DDX18, Q9NVP1 = molecular target: DDX18, Q9NVP1
Description: as §1

DDX46, Q7L014 = molecular target: DDX46, Q7L014
Description: as §1

DHX57, Q6P158 = molecular target: DHX57, Q6P158
Description: as §1

DIMT1, Q9UNQ2 = molecular target: DIMT1, Q9UNQ2
Description: as §1

EIF6, P56537 = molecular target: EIF6, P56537
Description: as §1

FHL1, Q13642 = molecular target: FHL1, Q13642
Description: as §1

FLOT1, O75955 = molecular target: FLOT1, O75955
Description: as §1

FLYWCH2, Q96CP2 = molecular target: FLYWCH2, Q96CP2
Description: as §1

GART, P22102 = molecular target: GART, P22102
Description: as §1

GOLIM4, O00461 = molecular target: GOLIM4, O00461
Description: as §1

GSK3B, P49841 = molecular target: GSK3B, P49841
Description: as §1

HIRIP3, Q9BW71 = molecular target: HIRIP3, Q9BW71
Description: as §1

HP1BP3, Q5SSJ5 = molecular target: HP1BP3, Q5SSJ5
Description: as §1

IKBIP, Q70UQ0 = molecular target: IKBIP, Q70UQ0
Description: as §1

KIF22, Q14807 = molecular target: KIF22, Q14807
Description: as §1

KPNA6, O60684 = molecular target: KPNA6, O60684
Description: as §1

LARP4, Q71RC2 = molecular target: LARP4, Q71RC2
Description: as §1

LARS, Q9P2J5 = molecular target: LARS, Q9P2J5
Description: as §1

MCM10, Q7L590 = molecular target: MCM10, Q7L590
Description: as §1

MLEC, Q14165 = molecular target: MLEC, Q14165
Description: as §1

MRPL41, Q8IXM3 = molecular target: MRPL41, Q8IXM3
Description: as §1

NDUFS7, O75251 = molecular target: NDUFS7, O75251
Description: as §1

NUP205, Q92621 = molecular target: NUP205, Q92621
Description: as §1

PFKP, Q01813 = molecular target: PFKP, Q01813
Description: as §1

PFN1, P07737 = molecular target: PFN1, P07737
Description: as §1

POLDIP3, Q9BY77 = molecular target: POLDIP3, Q9BY77
Description: as §1

PRDX3, P30048 = molecular target: PRDX3, P30048
Description: as §1

PRMT1, Q99873 = molecular target: PRMT1, Q99873
Description: as §1

PRPS1, P60891 = molecular target: PRPS1, P60891
Description: as §1

PSAT1, Q9Y617 = molecular target: PSAT1, Q9Y617
Description: as §1

PSIP1, O75475 = molecular target: PSIP1, O75475
Description: as §1

PSMA1, P25786 = molecular target: PSMA1, P25786
Description: as §1

PSMC5, P62195 = molecular target: PSMC5, P62195
Description: as §1

PSMD4, P55036 = molecular target: PSMD4, P55036
Description: as §1

PUSL1, Q8N0Z8 = molecular target: PUSL1, Q8N0Z8
Description: as §1

RAB2A, P61019 = molecular target: RAB2A, P61019
Description: as §1

RPP30, P78346 = molecular target: RPP30, P78346
Description: as §1

SAAL1, Q96ER3 = molecular target: SAAL1, Q96ER3
Description: as §1

SART1, O43290 = molecular target: SART1, O43290
Description: as §1

SDF2L1, Q9HCN8 = molecular target: SDF2L1, Q9HCN8
Description: as §1

SEC63, Q9UGP8 = molecular target: SEC63, Q9UGP8
Description: as §1

SF3B1, O75533 = molecular target: SF3B1, O75533
Description: as §1

SLU7, O95391 = molecular target: SLU7, O95391
Description: as §1

SPTLC1, O15269 = molecular target: SPTLC1, O15269
Description: as §1

TEX264, Q9Y6I9 = molecular target: TEX264, Q9Y6I9
Description: as §1

TRIP12, Q14669 = molecular target: TRIP12, Q14669
Description: as §1

UBAP2, Q5T6F2 = molecular target: UBAP2, Q5T6F2
Description: as §1

UBTF, P17480 = molecular target: UBTF, P17480
Description: as §1

ZNF703, Q9H7S9 = molecular target: ZNF703, Q9H7S9
Description: as §1

VSLLHQAEVLGDEKH [PSMB8-AS1]
PRISMA enrichment of interactor (log2) (AGK, Q53H12): 4.85
PRISMA enrichment of interactor (log2) (BZW1, Q7L1Q6): 5.33
PRISMA enrichment of interactor (log2) (CDC27, P30260): 9.23
PRISMA enrichment of interactor (log2) (CERS2, Q96G23): 6.83
PRISMA enrichment of interactor (log2) (CLNS1A, P54105): 5.68
PRISMA enrichment of interactor (log2) (CTPS1, P17812): 6.52
PRISMA enrichment of interactor (log2) (DCUN1D5, Q9BTE7): 6.28
PRISMA enrichment of interactor (log2) (DDX18, Q9NVP1): 6.45
PRISMA enrichment of interactor (log2) (DDX46, Q7L014): 8.25
PRISMA enrichment of interactor (log2) (DHX57, Q6P158): 5.66
PRISMA enrichment of interactor (log2) (DIMT1, Q9UNQ2): 4.88
PRISMA enrichment of interactor (log2) (EIF6, P56537): 4.84
PRISMA enrichment of interactor (log2) (FHL1, Q13642): 5.73
PRISMA enrichment of interactor (log2) (FLOT1, O75955): 9.7
PRISMA enrichment of interactor (log2) (FLYWCH2, Q96CP2): 4.74
PRISMA enrichment of interactor (log2) (GART, P22102): 7.23
PRISMA enrichment of interactor (log2) (GOLIM4, O00461): 5.42
PRISMA enrichment of interactor (log2) (GSK3B, P49841): 6.1
PRISMA enrichment of interactor (log2) (HIRIP3, Q9BW71): 6.18
PRISMA enrichment of interactor (log2) (HP1BP3, Q5SSJ5): 6.5
PRISMA enrichment of interactor (log2) (IKBIP, Q70UQ0): 5.37
PRISMA enrichment of interactor (log2) (KIF22, Q14807): 4.7
PRISMA enrichment of interactor (log2) (KPNA6, O60684): 9.85
PRISMA enrichment of interactor (log2) (LARP4, Q71RC2): 4.8
PRISMA enrichment of interactor (log2) (LARS, Q9P2J5): 5.13
PRISMA enrichment of interactor (log2) (MCM10, Q7L590): 4.31
PRISMA enrichment of interactor (log2) (MLEC, Q14165): 7.3
PRISMA enrichment of interactor (log2) (MRPL41, Q8IXM3): 4.75
PRISMA enrichment of interactor (log2) (NDUFS7, O75251): 5.39
PRISMA enrichment of interactor (log2) (NUP205, Q92621): 5.49
PRISMA enrichment of interactor (log2) (PFKP, Q01813): 9.14
PRISMA enrichment of interactor (log2) (PFN1, P07737): 11.5
PRISMA enrichment of interactor (log2) (POLDIP3, Q9BY77): 5.53
PRISMA enrichment of interactor (log2) (PRDX3, P30048): 5.46
PRISMA enrichment of interactor (log2) (PRMT1, Q99873): 5.18
PRISMA enrichment of interactor (log2) (PRPS1, P60891): 6.08
PRISMA enrichment of interactor (log2) (PSAT1, Q9Y617): 5.36
PRISMA enrichment of interactor (log2) (PSIP1, O75475): 4.27
PRISMA enrichment of interactor (log2) (PSMA1, P25786): 7.69
PRISMA enrichment of interactor (log2) (PSMC5, P62195): 6.3
PRISMA enrichment of interactor (log2) (PSMD4, P55036): 6.13
PRISMA enrichment of interactor (log2) (PUSL1, Q8N0Z8): 4.62
PRISMA enrichment of interactor (log2) (RAB2A, P61019): 5.69
PRISMA enrichment of interactor (log2) (RPP30, P78346): 4.54
PRISMA enrichment of interactor (log2) (SAAL1, Q96ER3): 4.51
PRISMA enrichment of interactor (log2) (SART1, O43290): 5.55
PRISMA enrichment of interactor (log2) (SDF2L1, Q9HCN8): 5.62
PRISMA enrichment of interactor (log2) (SEC63, Q9UGP8): 6.04
PRISMA enrichment of interactor (log2) (SF3B1, O75533): 7.68
PRISMA enrichment of interactor (log2) (SLU7, O95391): 5.79
PRISMA enrichment of interactor (log2) (SPTLC1, O15269): 4.24
PRISMA enrichment of interactor (log2) (TEX264, Q9Y6I9): 5.57
PRISMA enrichment of interactor (log2) (TRIP12, Q14669): 4.9
PRISMA enrichment of interactor (log2) (UBAP2, Q5T6F2): 5.16
PRISMA enrichment of interactor (log2) (UBTF, P17480): 5.92
PRISMA enrichment of interactor (log2) (ZNF703, Q9H7S9): 6.59
